# Data from PubChem BioAssay AID602449 (Sanford-Burnham Center for Chemical Genomics, 2012).
# The entries are a selection whose mix differs from that of the whole data set. Calls of active or inactive are those of the source.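 How the source made its calls: active means inhibition of 50% or more, scaled per plate between neutral and stimulator controls; inactive means the rest.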
# Test: mitochondrial permeability transition pore inhibitors, primary screen, biochemical, isolated mouse mitochondria, absorbance (AID 602449);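 further: 0% = DMSO wells given calcium and 100% = 1 mM EGTA wells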
# Conditions: Ca2+ swelling absorbance, 30 min, at 10 µM, stronger effect = higher value
row,Structure (SMILES),inhibition
1,Cc1ccc(-c2cc(C(=O)N3N=C(C(F)F)CC3(O)C(F)F)c3ccccc3n2)cc1C (stereo not given),active: 82%
2,O=[N+]([O-])c1ccc(-c2nc(-c3cccs3)c(-c3cccs3)[nH]2)cc1,active: 98.9%
3,CC(C)(C)C1CCC2(CC1)C(C#N)=C(SCC(=O)Nc1ccccc1)NC(=O)C2C#N (stereo not given),active: 95.4%
4,CC(C)C(=O)NC(Nc1cc(C(F)(F)F)ccc1Cl)C(Cl)(Cl)Cl (stereo not given),active: 98.5%
5,O=C(Nc1ccccc1)c1ccccc1NS(=O)(=O)c1ccc(Cl)s1,active: 87.8%
6,Cc1ccc(S(=O)(=O)N2CCN(c3ncnc4ccccc34)CC2)cc1,active: 93%
7,Cc1cc(/C=C\c2ccc3cc(N(C)C)ccc3[n+]2C)c(C)n1-c1ccccc1,active: 133%
8,CCc1ccc(-n2cccc2/C=C2/C(=N)N3C(=NC2=O)SN=C3S(C)(=O)=O)cc1,active: 67.1%
9,O=C(Nc1ccncc1)c1ccc(-c2ccccc2)cc1,active: 97.1%
10,COc1cccc(C(=O)NN/C(C)=C/C(=O)C(F)(F)C(F)(F)C(F)(F)F)c1,active: 73.3%
